Patent US8338422B2, “Indolin-2-ones and aza-indolin-2-ones” (Janssen Pharmaceutica NV, priority 2007, dated 2012)
Not every entry of the source has a single result; some have several. This is not the full list of results. The source may hold further records. The records of an entry differ for a reason that is not stated; dose, time, organism, isomer or construct need not be as stated for each record.

Sequences of proteins named here, by UniProt entry; tags and fusion partners are left off.
UniProt O00444, whole entry: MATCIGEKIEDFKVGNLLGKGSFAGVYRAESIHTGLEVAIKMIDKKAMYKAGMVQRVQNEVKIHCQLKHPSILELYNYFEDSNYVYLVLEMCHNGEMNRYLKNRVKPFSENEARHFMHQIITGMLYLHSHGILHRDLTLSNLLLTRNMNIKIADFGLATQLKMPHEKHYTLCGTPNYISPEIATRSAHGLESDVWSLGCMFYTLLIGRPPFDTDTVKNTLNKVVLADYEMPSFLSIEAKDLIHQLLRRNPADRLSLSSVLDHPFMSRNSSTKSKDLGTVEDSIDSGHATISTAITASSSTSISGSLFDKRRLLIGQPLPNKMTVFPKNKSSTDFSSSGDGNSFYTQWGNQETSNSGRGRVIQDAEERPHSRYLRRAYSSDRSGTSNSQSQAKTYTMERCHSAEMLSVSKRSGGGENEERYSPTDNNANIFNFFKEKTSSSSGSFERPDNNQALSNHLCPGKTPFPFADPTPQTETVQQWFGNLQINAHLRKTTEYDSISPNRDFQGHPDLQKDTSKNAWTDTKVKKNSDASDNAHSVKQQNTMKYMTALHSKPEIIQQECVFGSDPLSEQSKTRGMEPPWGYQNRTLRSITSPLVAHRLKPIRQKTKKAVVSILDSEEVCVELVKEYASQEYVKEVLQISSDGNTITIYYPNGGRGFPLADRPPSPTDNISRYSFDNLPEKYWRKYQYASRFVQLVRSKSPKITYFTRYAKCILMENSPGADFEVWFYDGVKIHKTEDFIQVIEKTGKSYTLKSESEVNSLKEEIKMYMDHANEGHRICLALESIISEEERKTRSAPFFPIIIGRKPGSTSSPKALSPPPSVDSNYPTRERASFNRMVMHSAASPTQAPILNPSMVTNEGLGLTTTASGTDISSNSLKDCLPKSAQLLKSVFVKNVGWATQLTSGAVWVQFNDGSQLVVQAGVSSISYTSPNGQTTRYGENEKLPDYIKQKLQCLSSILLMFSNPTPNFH
UniProt P49841, whole entry: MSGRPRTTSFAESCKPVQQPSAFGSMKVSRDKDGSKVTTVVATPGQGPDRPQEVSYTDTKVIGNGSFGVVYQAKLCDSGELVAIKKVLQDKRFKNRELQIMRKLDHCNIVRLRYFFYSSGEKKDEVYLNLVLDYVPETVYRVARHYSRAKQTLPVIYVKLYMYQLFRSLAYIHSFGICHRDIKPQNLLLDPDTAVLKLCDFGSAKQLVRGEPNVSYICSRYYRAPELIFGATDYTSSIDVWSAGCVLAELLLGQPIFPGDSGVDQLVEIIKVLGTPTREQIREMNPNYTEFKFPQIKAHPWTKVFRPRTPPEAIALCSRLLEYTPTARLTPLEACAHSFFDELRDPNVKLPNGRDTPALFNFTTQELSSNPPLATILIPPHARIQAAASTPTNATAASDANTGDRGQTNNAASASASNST

Columns and labels:
PLK4 (h) = PLK4 (h) (Homo sapiens, UniProt O00444); test: PLK-4 human kinase assay (SPA)
Description: (§1) The in vitro inhibition of a panel of kinases was assessed using either the scintillation proximity assay (SPA) as described by Cook, N. D. et al., Advances in Experimental Medicine and Biology (1991), 36; p. 525-528; or the Fluorescence Resonance Energy Transfer (FRET) technology as described by Rodems, S. M. et al., Assay Drug Develop. Technol. (2002), 1; p. 9-19.
(§2) In the SPA technology the activity of the kinase of interest is measured using an appropriate biotinylated substrate that is incubated with the aforementioned kinase protein in the presence of (^33P) radiolabeled ATP. (^33P) Phosporylation of the substrate is subsequently measured through binding of the phosphorylated substrate to streptavidine coated beads that are based on the scintillant poly(vinyl toluene) (PVT-Beads). The scintillation intensity is detected by imaging on Leadseeker.
(§3) All kinases are pre-diluted to a 10× working concentration prior to addition into the assay. The composition of the dilution buffer for each kinase is detailed below.
In a final reaction volume of 30 μl PLK4 (h) (19 μg/ml) is incubated with 50 mM Hepes pH 8.0, 10 mM MgCl2, 50 mM NaCl, 1 mM NaF, 1 mM DTT, 10 μM of peptide Biotin-RPRGQRDSSYYWE-OH, 1 μM ATP and 2 nM [γ-^33P-ATP] (6.0 μCi/ml). […] The plate is centriguged and read for Scintillation imaging on Leadseeker.

GSK3β (h) = GSK3β (h) (Homo sapiens, UniProt P49841); test: GSK-3β human kinase assay (SPA)
Description: as §1, §2, §3
In a final reaction volume of 30 μl, GSK3β (h) (1 μg/ml) is incubated with 25 mM Tris pH 7.4, 10 mM MgCl2, 1 mM DTT, 1 μM peptide Biotin-KRREILSRRPSYR-OH, 1 μM ATP and 2 nM [γ-^33P-ATP] (6.0 μCi/ml). […] The plate is centriguged and read for Scintillation imaging on Leadseeker.

| Structure (SMILES) | PLK4 pIC50 (PLK4 (h)) | GSK3B pIC50 (GSK3β (h)) |
| --- | --- | --- |
| CN1CCNc2ncnc3c2/C(=C/Nc2cccc(c2)OCCCN2C[C@H](O)C[C@@H]2C1=O)C(=O)N3 | 5.14 and 5.64 | 5.21, 5.24, 6.19 |
| CN1CCCNc2ncnc3c2/C(=C/Nc2ccc(Cl)c(c2)OCCN2C[C@H](O)C[C@@H]2C1=O)C(=O)N3 | <5 and 5.16 | – |
